From the RNAGym collection of RNA variant scans (doi:10.1126/science.aae0568) come the findings set out here.

This sample is rich in variants without activity. Bounds are passed on as bounds.

B1: tRNA (parent)
chain: GUUCCGUUGGCGUAAUGGUAACGCGUCUCCCUCCUAAGGAGAAGACUGCGGGUUCGAGUCCCGUACGGAACG

In the data set the parent is B1. The data set can be described thus: yeast fitness relative to wild type (ratio to wild type); higher = fitter; tRNA-Arg(CCU), competitive growth, 37 C, YPD. Summed up:
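Changes in genotype frequencies gave Darwinian fitness relative to wild type. Frequencies were read by 100-nucleotide paired-end sequencing of gene amplicons before and after pooled Saccharomyces cerevisiae strains, carrying tRNA-Arg(CCU) gene variants at the native locus, were competed in YPD at 37°C for 24 hours in six replicates. A genotype was kept only with ≥ 100 starting reads, and estimates < 0.5 were set to 0.5.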
For GUUCCGUUGGCGUAAUGGUAACGCGUCCCCCUCCUAAGCAGAAGACUGCGCGUUGGAGUCCCGUACGGAACG [U28C G39C G51C C55G], the yeast fitness was no more than 0.5. Regarding GUUCCGUUGGCGUAAUGAUAACGCGUCUCCCUCCUAAGGAGAAGACUGCGGGUUCGAGUCCCGUACGCUACG [G18A G68C A69U], the yeast fitness is no more than 0.5. As to GUUCCGUAGGCGUAAUGGCAACGCGUCUCCAUCCGAAGGAGAGGACCGCGGCUUCGAGUCCCGUACAGAACG [U8A U19C C31A U35G A43G U47C G52C G67A], the yeast fitness turned out to be 0.575. Under GUUCCGUUGGCGUAAUGGUAUCGCGUCUCCCUCCUAGGGAGAAGACUGCGGGUUCGAGUCCCGUACGGACCG [A21U A37G A70C] stands no more than 0.5; under GUACCGUUGGUGAAAUCCUAACGCGUCUCCCUCCUCAGGAGAAGACUGCGGGUUCGAGUCCCGUACGGAUCG [U3A C11U U13A G17C G18C A36C A70U], no more than 0.5; under GUUCCGUUGGCGUACUGGUAACGCGUCUCCCUCCUUAGGAGAAGACUGCGGGUUCGUGUCCCGUACGGAACG [A15C A36U A57U], no more than 0.5. Consider GUUCCGUUGGCGUAAUGGUAAGGCGUCUCCCUCCUAAGGAGAACACUGCGGGUUCGAGUCCCGUACGGACCG [C22G G44C A70C], for which the yeast fitness stood at 0.553. With GUUCCGUUGGCGUAAUGGUAACGCGUCUCCCUCCUAAGGAGAAGACUGCGGGUUCGAGUCCCGCACGCAACG [U64C G68C], the yeast fitness amounted to 0.978.

As for GUUCCGUUAGAGUAAUGGUAACGUGUCUCCCUCAUAUGGAGAAGACUGCGGGUUCGAGUCCAGUAAGGAACG [G9A C11A C24U C34A A37U C62A C66A], the yeast fitness is no more than 0.5. Under GUUCCGUUGGUGUAAUGGUAACGCGUCUCCCUCCUAAGGAGAAGACUGCCGGUUCGAGUCCCGUAAGGAACG [C11U G50C C66A] stands no more than 0.5; under GUUCCGUUGGCGUAAUGCUAACGCGUCUCCCUCCUAAGGAGAAGACGGCGGGUUCGAGUCCCGUACAGUACG [G18C U47G G67A A69U], no more than 0.5.

Consider GUUCCGUUCGCGUAAUGGUAACGCGUGUGCCUCCUCAGGAGAAGACUGCGGGUUCGAGUCCCGUACGGAACG [G9C C27G C29G A36C], for which the yeast fitness is no more than 0.5. For GUUCCGUUAGCGUAAUGGUAACGCGUCUCCCUCCUAAGGAGGAGACUGCGGGUUCGAGUCCCGUACGGAACG [G9A A42G] the value was 0.96; for GUUGCGUUGGGGUAAUGGUAACGCGUCUACCUCCUAAGGGGAAGACUGCGGGUUCGAGUCCAGUACGGAACG [C4G C11G C29A A40G C62A], no more than 0.5; for GUUCCGUUGGCGUAAUGGUAACGCGUCCCCCUCCUAAGGAGGAGACUGCGGGUUCGAGUCCCGUACGGAACG [U28C A42G], 0.913.

Take GUUACGUUGGCGUAAUGGUAACGCGUUUCCCUCCUAAGCAGAAGACUGCGGGUUCGAGUCCCGUACGGAACG [C4A C27U G39C]: the yeast fitness came out at 0.632. Under GUUCCGUUGGCGUAAUGGUAAGGCGUGUCCCUCCUAAGGAGAAGACUGUGGGUUCGAGUCCCGUACGGAACG [C22G C27G C49U] stands no more than 0.5. Consider GUUCCGUUAGCGUCAUGGUAACGCGUCUCCCACCUAAGGAGAAGACUGCGGGUUCGAGUCCCGUACGGAACG [G9A A14C U32A], for which the yeast fitness is no more than 0.5. Consider GUUCGGUUGGCGUAAUGGUAACGCGUCUCCCUCCUAAGGAGAAGACUGCGGGUUCGCGUCCCGUCCGGACCG [C5G A57C A65C A70C], for which the yeast fitness was no more than 0.5. As for GUUCCGUUGGCGUAAUGGUAACGCAUAUCCCUCCCAAGGAGAAGACUGCGGGUUCGCGUCCCGUACGGAACG [G25A C27A U35C A57C], the yeast fitness was no more than 0.5. Under GUGCCGUUGGCGUAAUGGUAACGCGUCUCCCUCGUAAGGAGAAGACUGCGGGUUCGAGUCCCGUACGGAUCG [U3G C34G A70U] stands no more than 0.5; under GUUCCGUUGGACUAAUGGUAACGCGUCUCCCUCCUAAGAAGAAGACUGCGGGUUCGAGUCCCAUACGGAACG [C11A G12C G39A G63A], no more than 0.5; under GUUCCGUUGGUGUAAUGGUAACGCGUCUCCCUCCUAAGGAGAAGACUGCGGGUUCGAGUCCCGUGGGCAACG [C11U A65G C66G G68C], no more than 0.5.

GUUCCGUUGGCGUAAUGGUAAGGCGUCUCCCUCCUAAGGCGAAGACUGCGGGUUCGAGUCCCGUACGGAACG [C22G A40C]: the yeast fitness amounted to 0.68. In the case of GUUCCGCUGGCGUUAUGGUAACGGGUCUCCCUCCUAAGGAGAGGACUGCGGGUUCGAGUCCCGUACGGAACG [U7C A14U C24G A43G], the yeast fitness was no more than 0.5.

With GUUCCGUUGGGGUAAUGGUCACGCGUCUCCCUCCUAAGGAGAAGACUGCGGGUUAGAGUCCAGUACGGAACG [C11G A20C C55A C62A], the yeast fitness is no more than 0.5. Under GUUCCGUUGGCGUAAUGGUAACGCGUUUCUCUCAUAAGGAGAAGACUGCGGGUUCGAGUCCAGUACGGAACG [C27U C30U C34A C62A] stands no more than 0.5; under GUUCCCUUGGCGUAAUGGUAACGCGUCUCCCACCUAUGGAGAAGACUGCGGGUUCGAGUCCCGUAAGGAACG [G6C U32A A37U C66A], no more than 0.5. For GUUCCGUUGGCGUAAUGGUAACGCCUCUCCGUCCUAAGGAGAAGACUGCGGGUUCGAGUCGCGUAGGGAACG [G25C C31G C61G C66G] the value was 0.674. As to GUUCCGUUGGCGUAAUGGUAACACGUCUCCCUCCUUAGGAGAAGACUGAGGGUUCGAGUCCCGUACGGAACG [G23A A36U C49A], the yeast fitness is no more than 0.5.

As for GUUCCUUUGGGGUAAUGGUAACGCGUCUCCCUCCUAAGGAGAAGACUGCGGGUUCGAGUCCCGUACGGCACG [G6U C11G A69C], the yeast fitness was no more than 0.5. Under GUUACGUUGGCGCAAUGGUCACGCGUCUCCCUCAUAAGCAGAUGACUGCGGGUUCGAGUCCCGUACGGAACG [C4A U13C A20C C34A G39C A43U] stands no more than 0.5; under GUUCCGUUGGCGUAAUGGUAACGCGACUCCAUCCUAAGGAGGAGACUACGGGUUCGAGUCCCGUACGGAACG [U26A C31A A42G G48A], no more than 0.5; under GUUUCGUUGGCGUAAUGGUAACGCGUCUCCCUGCUAAGGAGAAGACGGCGGGUUCGGGUCCCGUACGGUACG [C4U C33G U47G A57G A69U], no more than 0.5. As to GUUCCGUUGACGUAAAGGUAACGCGUCUCCCUCCUAAGGAGAAAACUGCGGGUUCGAGUCCCGUGCGGAACG [G10A U16A G44A A65G], the yeast fitness was no more than 0.5. Under GUUACGUUGGCCUAAUGGCAACGGGUCUCCCUCCUAAGGAGAUGACUGCGGAUUCGAGUCACGUACGGAACG [C4A G12C U19C C24G A43U G52A C61A] stands no more than 0.5; under GUUCCGUUGGCGUAAUGGUAACGCGUCUCCCUCCUAAGGAGAAGACUGCGGGUUCGUGUCCCGUACGUAGCG [A57U G68U A70G], no more than 0.5.
